Measured values reported in US20190030139A1, “USP10 MODULATION OF AMPK AND MTOR” (MAYO FOUNDATION FOR MEDICAL EDUCATION AND RESEARCH, priority 2016, published 2019).
These are yes or no findings as the source states them, for the method shown. In cells and extracts the contact can be indirect. Some results given as binding are weak or reduced against the parent protein; the word gives no strength.

Sequences of proteins named here, by UniProt entry; tags and fusion partners are left off. A change or cut given only in a name is not applied to a line headed by its entry.
UniProt P54646: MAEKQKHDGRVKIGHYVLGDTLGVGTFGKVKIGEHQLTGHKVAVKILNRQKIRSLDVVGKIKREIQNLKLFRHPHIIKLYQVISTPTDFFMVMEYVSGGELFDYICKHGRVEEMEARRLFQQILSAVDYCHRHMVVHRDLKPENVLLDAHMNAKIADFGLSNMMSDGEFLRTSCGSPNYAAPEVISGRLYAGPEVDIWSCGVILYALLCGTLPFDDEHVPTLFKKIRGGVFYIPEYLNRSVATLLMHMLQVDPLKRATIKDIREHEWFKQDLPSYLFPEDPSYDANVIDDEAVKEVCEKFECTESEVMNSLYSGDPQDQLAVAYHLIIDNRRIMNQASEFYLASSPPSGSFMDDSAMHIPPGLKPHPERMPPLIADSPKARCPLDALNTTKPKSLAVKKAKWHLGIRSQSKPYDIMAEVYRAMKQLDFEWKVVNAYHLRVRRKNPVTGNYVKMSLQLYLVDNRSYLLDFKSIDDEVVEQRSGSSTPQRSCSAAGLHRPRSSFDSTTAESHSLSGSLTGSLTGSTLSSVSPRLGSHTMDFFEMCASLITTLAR
UniProt Q13131: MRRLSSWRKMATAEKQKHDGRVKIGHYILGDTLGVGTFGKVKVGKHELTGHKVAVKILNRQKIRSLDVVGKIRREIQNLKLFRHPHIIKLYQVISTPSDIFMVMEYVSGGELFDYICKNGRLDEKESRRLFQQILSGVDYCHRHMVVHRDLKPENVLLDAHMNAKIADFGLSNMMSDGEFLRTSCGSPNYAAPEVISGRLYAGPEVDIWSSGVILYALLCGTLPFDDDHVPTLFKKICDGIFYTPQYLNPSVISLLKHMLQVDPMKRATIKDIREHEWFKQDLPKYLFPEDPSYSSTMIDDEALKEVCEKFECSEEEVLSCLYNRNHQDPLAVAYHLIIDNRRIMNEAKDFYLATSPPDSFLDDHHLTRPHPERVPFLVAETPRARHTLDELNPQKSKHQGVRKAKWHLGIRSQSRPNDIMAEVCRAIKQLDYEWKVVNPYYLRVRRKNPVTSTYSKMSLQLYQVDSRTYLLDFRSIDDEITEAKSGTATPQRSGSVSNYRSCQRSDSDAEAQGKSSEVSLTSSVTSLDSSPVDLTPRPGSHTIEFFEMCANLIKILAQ
UniProt Q14694: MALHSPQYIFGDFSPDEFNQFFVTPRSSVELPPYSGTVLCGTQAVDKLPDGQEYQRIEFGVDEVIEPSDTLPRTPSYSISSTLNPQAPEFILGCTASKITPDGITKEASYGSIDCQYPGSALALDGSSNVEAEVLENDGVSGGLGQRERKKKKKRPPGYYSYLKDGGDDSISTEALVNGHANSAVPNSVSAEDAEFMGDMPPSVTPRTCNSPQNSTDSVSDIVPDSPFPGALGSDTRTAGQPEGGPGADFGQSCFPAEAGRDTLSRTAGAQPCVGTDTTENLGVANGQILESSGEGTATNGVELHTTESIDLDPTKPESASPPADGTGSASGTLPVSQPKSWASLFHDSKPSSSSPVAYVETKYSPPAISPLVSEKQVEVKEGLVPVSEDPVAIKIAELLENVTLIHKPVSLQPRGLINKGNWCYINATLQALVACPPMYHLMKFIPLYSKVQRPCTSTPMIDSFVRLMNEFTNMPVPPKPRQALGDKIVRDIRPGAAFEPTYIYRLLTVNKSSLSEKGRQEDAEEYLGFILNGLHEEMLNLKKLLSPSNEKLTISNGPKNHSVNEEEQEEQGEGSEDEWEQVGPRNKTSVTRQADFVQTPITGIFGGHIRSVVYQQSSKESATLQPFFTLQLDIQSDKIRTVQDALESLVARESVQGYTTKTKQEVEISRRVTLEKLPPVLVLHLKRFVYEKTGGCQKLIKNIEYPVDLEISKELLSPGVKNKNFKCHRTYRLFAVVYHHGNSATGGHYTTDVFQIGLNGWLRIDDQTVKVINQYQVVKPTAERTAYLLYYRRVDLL

Legend:
[1] = target: AMPKα2 (in HCT116 cell lysates) (human) (UniProt P54646); assay: co-immunoprecipitation from HCT116 lysates (FIGS. 3B, 3D)
[2] = target: AMPKα2 (in HCT116 cell lysates) (human) (UniProt P54646); assay: co-immunoprecipitation from HCT116 lysates with anti-USP10 or anti-AMPKα2 (FIGS. 3B, 3D)
[3] = target: AMPKα1 (in HCT116 cell lysates) (human) (UniProt Q13131); assay: co-immunoprecipitation from HCT116 lysates with anti-USP10 or anti-AMPKα1 (FIGS. 3B, 3C)
[4] = target: AMPKα1 (in HCT116 cell lysates) (human) (UniProt Q13131); assay: co-immunoprecipitation from HCT116 lysates (FIGS. 3B, 3C)

Measured: binding

USP10 (in cell lysates, co-immunoprecipitation) (from UniProt Q14694 2-798) (enzyme)
binds: all assays above
